In PubChem BioAssay AID540275 (National Center for Advancing Translational Sciences (NCATS), 2011):
Among all 320,000 compounds or so, about 620 (0.19%) were called active. The shares of active, inactive and inconclusive entries below differ from those in the screen. No stated cut-off is given here; in the data, active means activation above about 80%; inconclusive means between about 30% and that limit; inactive means weaker than that.
Further: 0% is about no effect.

By UniProt entry, the sequences of proteins in these tests, tags left out.
UniProt Q8NER1, whole entry, looked up: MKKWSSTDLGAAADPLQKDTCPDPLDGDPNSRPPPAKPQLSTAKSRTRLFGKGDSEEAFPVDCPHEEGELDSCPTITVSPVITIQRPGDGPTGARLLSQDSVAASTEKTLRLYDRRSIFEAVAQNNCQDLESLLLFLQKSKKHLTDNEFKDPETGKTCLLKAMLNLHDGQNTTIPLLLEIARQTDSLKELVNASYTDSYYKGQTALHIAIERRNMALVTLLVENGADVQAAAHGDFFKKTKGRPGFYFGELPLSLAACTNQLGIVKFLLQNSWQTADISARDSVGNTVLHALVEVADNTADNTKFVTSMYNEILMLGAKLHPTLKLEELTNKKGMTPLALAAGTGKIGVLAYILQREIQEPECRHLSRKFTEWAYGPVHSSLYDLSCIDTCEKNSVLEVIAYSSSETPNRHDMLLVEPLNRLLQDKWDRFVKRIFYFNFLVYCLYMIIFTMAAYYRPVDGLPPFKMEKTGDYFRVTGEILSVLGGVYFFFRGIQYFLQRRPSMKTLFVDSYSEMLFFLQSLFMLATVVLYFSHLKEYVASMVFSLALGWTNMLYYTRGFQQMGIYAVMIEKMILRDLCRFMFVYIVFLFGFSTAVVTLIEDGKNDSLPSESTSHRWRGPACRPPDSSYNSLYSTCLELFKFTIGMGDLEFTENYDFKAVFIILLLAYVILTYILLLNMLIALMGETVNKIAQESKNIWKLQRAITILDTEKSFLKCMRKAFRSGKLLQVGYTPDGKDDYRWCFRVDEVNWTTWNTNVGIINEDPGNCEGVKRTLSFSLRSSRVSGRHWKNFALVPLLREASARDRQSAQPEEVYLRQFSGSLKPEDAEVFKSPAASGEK

These compounds were tested against Transient receptor potential cation channel subfamily V member 1 (Homo sapiens) (UniProt Q8NER1) (assay: HTS Assay for Compounds that Act as Agonists of the Vanilloid Receptor 1). Details: TRPV1-expressing cells, Fluo-8 calcium influx, agonist mode; at 8.33 µM, stronger effect = higher value.
In short: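 Cells expressing TRPV1 were dye-loaded with Fluo-8 and read kinetically: 10 s baseline, 3 min after compound (agonist portion), then 2 min after EC20 capsaicin (allosteric enhancer portion). Calcium-bound dye fluorescence at 480/520 nm.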
In the case of `COc1ccc2c(c1OC)C(=O)N1N=C(c3ccc(Cl)cc3)CC21` (stereo not given), the activation is reported as inconclusive: 42%. For `O=C(Nc1ccc2c(c1)OCO2)N1CCN(c2ccccc2Cl)CC1`, the activation was inconclusive: 51.1%. With `O=S(=O)(c1ccc(F)c(F)c1F)N1CCN(C(=S)NC2CC3CCC2C3)CC1` (stereo not given) the activation was inactive: 5.5%. With `Cc1cc(Cl)ccc1OCC(=O)NC1CCCC1` the activation was inconclusive: 36.9%. In the case of `Cc1cc(N2CCC(C)CC2)nc(-c2ccccc2O)n1`, the activation is reported as inconclusive: 30.3%. For `COCCCNc1c2c3c(cccc3[nH]c1=O)C(=O)c1ccccc1-2`, the activation was inactive: 1.95%. `COc1ccc(C(=O)NOCc2ccccc2)cc1` was tested, and the activation was inconclusive: 35.2%. In the case of `OCCOCCOc1ccccc1OCCOCCO`, the activation is reported as inconclusive: 75.8%. For `O=[N+]([O-])c1cc(/C=N/O)ccc1Oc1ccccc1Cl`, the activation was inconclusive: 32.1%. For `CC(C)COc1cccc(C(=O)Nc2ccc(S(=O)(=O)N3CCOCC3)cc2)c1`, the activation was inconclusive: 34.3%. In the case of `CN(C)c1ccc(Nc2ncnc3ccc(Br)cc23)cc1`, the activation is reported as inconclusive: 42.5%. With `Cc1cc(C)cc(NC(=O)CN2CCN(c3ccccc3)CC2)c1` the activation was inactive: 0.921%. `COc1cccc(NC(=O)c2ccc3c(c2)OCO3)c1` was tested, and the activation was inconclusive: 61.9%. In the case of `O=C(N/N=C/c1cn(-c2ccccc2)nc1-c1cc2ccccc2o1)c1cccnc1`, the activation is reported as inconclusive: 44.4%. In the case of `COc1ccc(CCC(=O)Nc2ccc(C)c([N+](=O)[O-])c2)cc1`, the activation is reported as inconclusive: 32.8%. `O=C(O)c1ccc(CSc2nc3ccccc3c(=O)n2-c2ccccc2)cc1` was tested, and the activation was inactive: 0.141%. `O=C(Nc1ccc2c(c1)OCCO2)c1ccc(Cl)cc1` was tested, and the activation was inconclusive: 54.1%. With `CCOC(=O)Cc1csc(NC(=O)CSc2nnc(C(C)C)n2C)n1` the activation was inactive: 2.13%. For `CN(C)C(=O)c1ccc(NS(=O)(=O)c2ccc3c(c2)OCCO3)cc1`, the activation was inactive: 0.566%. For `CC(C)n1c(-c2ccc(C(C)(C)C)cc2)n[nH]c1=S`, the activation was inconclusive: 42.4%. `COC(=O)c1ccc(C)c(NC(=O)c2nn(C)c(=O)c3ccccc23)c1` was tested, and the activation was inactive: -2.76%. With `O=C(Nc1ccc2[nH]c(=O)[nH]c2c1)Nc1ccc(F)cc1F` the activation was inconclusive: 30.8%. With `Cc1ccccc1-n1c(=S)[nH]c2nc3c(cc2c1=O)COC(C)(C)C3` the activation was inactive: -2.29%. In the case of `O=C(NC(CSCc1ccccc1)C(=O)N/N=C/c1ccc(O)cc1O)c1ccc([N+](=O)[O-])cc1` (stereo not given), the activation is reported as inconclusive: 31.6%. For `CCOC(=O)C(C(=O)N(C)Cc1ccccc1)C1CCCCC1` (stereo not given), the activation was inconclusive: 33.2%. For `CC(C)CC(COCc1ccc(F)cc1)N1CCN(C(=O)c2cccc(C(F)(F)F)c2)CCC1=O` (stereo not given), the activation was inconclusive: 65.1%. In the case of `COC(=O)c1cn[nH]c1NC(=S)Nc1ccc(Cl)c(Cl)c1`, the activation is reported as inactive: 2.02%. With `O=C(CSc1nccn1-c1ccccc1)NCc1ccc2c(c1)OCO2` the activation was inconclusive: 41.6%. In the case of `Cc1ccc(NC2CCCN(C(=O)c3cccs3)C2)cc1C` (stereo not given), the activation is reported as inconclusive: 51.4%. For `COc1ccc(-c2nc3ccccn3c2NCc2ccc3c(c2)OCO3)cc1`, the activation was inconclusive: 44.3%. `Cc1nc2ccccc2n1CCOc1ccc(F)cc1` was tested, and the activation was inconclusive: 35.7%. In the case of `O=C(NCc1ccc(Cl)cc1)c1noc2c1CCCCC2`, the activation is reported as inconclusive: 37.7%. `COc1ccc(-n2cnc3cc(NCc4cccs4)ccc32)cc1` was tested, and the activation was inconclusive: 36.5%. For `CCOc1ccc(CNC(=O)c2ccc(Sc3ccc(C)cc3)c(NC(C)=O)c2)cc1`, the activation was inconclusive: 55.8%. With `Cc1nc2ccccc2n1C1CCN(CC(=O)NCc2ccc(F)cc2)CC1` the activation was inactive: -4.27%. With `O=C(Cc1ccc(-n2cccc2)cc1)NCc1ccccc1Cl` the activation was inconclusive: 40.5%. In the case of `Cc1ccc(C(=O)Nc2ccc3c(c2)OCO3)cc1S(=O)(=O)N1CCCC1`, the activation is reported as inconclusive: 45.8%. For `COc1ccc(NC(=O)CC2(CC(=O)O)CCCC2)cn1`, the activation was inactive: -1.9%. In the case of `O=C(CN1CCCCCC1)Nc1ccccc1Oc1ccccc1`, the activation is reported as inconclusive: 42.3%. In the case of `S=C(Nc1ccc2nsnc2c1)N1CCCC1`, the activation is reported as inactive: 8.27%. In the case of `O=[N+]([O-])c1ccc(COc2cccc(CNc3ccc(F)cc3)c2)cc1`, the activation is reported as inactive: -4.31%. With `COc1cccc(/C=C/C(=O)c2c(O)cc(C)oc2=O)c1O` the activation was inactive: 4.28%. With `O=C(N/N=C/c1ccncc1)C1CC1(c1ccccc1)c1ccccc1` (stereo not given) the activation was inconclusive: 59.6%. `CC(C)(C)C#CCn1c(/C=[N+](\[O-])C2CCCCC2)nc2ccccc21` was tested, and the activation was inconclusive: 40.3%. `Cc1ccc(-c2cc(C(=O)NCC3CCCO3)c3ccccc3n2)cc1C` (stereo not given) was tested, and the activation was inconclusive: 52.2%. For `O=C(Nc1ccccc1C(F)(F)F)NC1CCCCCCC1`, the activation was inconclusive: 30.9%. In the case of `N#Cc1c(C(F)(F)F)cc(-c2ccccc2)nc1SCC(=O)N1CCOCC1`, the activation is reported as inconclusive: 32.3%. In the case of `Fc1ccccc1OCC1CCCN(Cc2nc(CC3CC3)no2)C1` (stereo not given), the activation is reported as inactive: 13.9%. `S=C(NCc1ccco1)N1CCN(Cc2ccc(Cl)cc2Cl)CC1` was tested, and the activation was inconclusive: 33.8%. In the case of `Cc1nn(C)cc1CNC(=O)COc1ccc(Cl)cc1Cl`, the activation is reported as inconclusive: 59.8%. With `CCOc1ccc(CN2CCN(Cc3[nH]c4ccc(OC)cc4c3C)CC2CCO)cc1` (stereo not given) the activation was inactive: 0.0758%. `O=C(c1ccc(Cn2cc(Cl)cn2)o1)N1CCN(Cc2ccc3c(c2)OCO3)CC1` was tested, and the activation was inconclusive: 35.5%. In the case of `Cc1ccc(S(=O)(=O)N2CCN(C(=O)c3cc(S(=O)(=O)N(C)C)ccc3N3CCCC3)CC2)cc1`, the activation is reported as inactive: 1.41%. With `Fc1cccc(Cc2noc(CN3CCCCC3c3ccccn3)n2)c1` (stereo not given) the activation was inconclusive: 32%. For `COc1ccccc1/C=C/C(=O)c1c2c(c(C)[nH]c1=O)CCCC2`, the activation was inactive: -4.91%. With `CN(C(=O)CCn1c(=S)oc2ccccc21)C1CCCCC1` the activation was inconclusive: 34.8%. For `CCCN1C(=O)c2cc(C(=O)Nc3cccc(C(C)=O)c3)ccc2C1Nc1cccc(C(C)=O)c1` (stereo not given), the activation was inconclusive: 66.3%. For `O=[N+]([O-])c1ccc(Sc2ccccn2)nc1`, the activation was inactive: -7.94%. `O=C(N1CCN(Cc2ccc3c(c2)OCO3)CC1)C12CC3CC(CC(C3)C1)C2` was tested, and the activation was inconclusive: 33.5%. For `Cc1cccc(CSc2nnc(-c3cccs3)n2Cc2ccco2)c1`, the activation was inactive: 3.93%. `Cc1ccc(C2=NS(=O)(=O)N(C)C(C(=O)NCc3ccc4c(c3)OCO4)=C2)cc1` was tested, and the activation was inconclusive: 48.9%. With `CCCCc1ccc(NC(=S)N2CCN(C(=O)c3ccco3)CC2)cc1` the activation was inconclusive: 43.2%. `CC(/C=C\C=C\c1ccccc1)=N\NC(=O)c1cncc(Br)c1` was tested, and the activation was inactive: 3.31%. With `O=C(Nc1nnc(-c2ccccc2Cl)o1)c1ccc(S(=O)(=O)N2CCCCCC2)cc1` the activation was inactive: 4.27%. In the case of `CCC(=O)c1ccc(OCC(=O)N2CCN(S(=O)(=O)c3ccc(Cl)s3)CC2)cc1`, the activation is reported as inactive: 8.95%. `CCCc1cc(C(=O)Nc2cnn(Cc3ccc(F)cc3)c2)no1` was tested, and the activation was inconclusive: 35.1%. In the case of `O=C(C1=C[C@@H](c2coc3ccccc3c2=O)C[C@@H](OCc2ccc(CO)cc2)O1)N1CCCCCCC1`, the activation is reported as inconclusive: 46.1%. With `C=CCn1c(C)cc(C(=O)CSc2nnc(Cc3ccccc3)o2)c1C` the activation was inconclusive: 32.8%. For `COc1ccc(C(=O)COC(=O)c2cc(=O)[nH]c3ccccc23)c(OC)c1`, the activation was inactive: 0.629%. For `Cc1ccc(Sc2ccc(NC(=O)CCl)cc2)c(C)c1`, the activation was inconclusive: 36.1%. In the case of `Cc1ccc(-c2nn(C(C)(C)C)c3ncnc(NS(=O)(=O)c4ccc([N+](=O)[O-])cc4)c23)cc1`, the activation is reported as inactive: 25.9%. In the case of `CCCN(CCC)C(=O)c1ccc2c(=O)n(Cc3ccco3)c(=S)[nH]c2c1`, the activation is reported as inactive: -1.01%. For `COC(=O)c1ccc(C2NC(=S)N(c3ccccc3)C(C)=C2C(=O)Nc2ccccc2OC)cc1` (stereo not given), the activation was inactive: 3.38%. With `CCn1cc(C(=O)NCc2ccco2)c(=O)c2cc(S(=O)(=O)N3CC(C)CC(C)C3)ccc21` (stereo not given) the activation was inconclusive: 42.2%. With `CCOC(=O)C1CCCN(c2nc3ccccc3nc2NS(=O)(=O)c2ccc(C)cc2)C1` (stereo not given) the activation was inactive: 10.8%. For `CC(OC(=O)C1CCCC1)C(=O)Nc1ccc(S(N)(=O)=O)cc1` (stereo not given), the activation was inactive: 1.28%. For `O=c1c2ccccc2nc(N/N=C/c2c(O)ccc3ccccc23)n1O`, the activation was inactive: -4.35%. `O=C(Oc1ccc2ccc(=O)oc2c1)c1ccco1` was tested, and the activation was inconclusive: 30.3%. `CC(C)NC(=O)c1onc(CSc2ccc(Cl)cc2)c1C(=O)NC(C)C` was tested, and the activation was inconclusive: 48.7%. With `CC(C)C[C@H]1CN=C(Nc2ccccc2)N1CC1CCC(C)CC1` (stereo not given in full) the activation was inactive: 7.25%. In the case of `c1ccc(CNc2ccc3ccccc3n2)nc1`, the activation is reported as inactive: 10.3%. `O=C(c1csc2ccccc12)N1CCN(c2ccccn2)CC1` was tested, and the activation was inconclusive: 37.9%. For `CCCCN(CCCC)C(=S)NC(=O)c1ccccc1Cl`, the activation was inconclusive: 45.8%. In the case of `CC(C)(C)c1ccc(C(=O)CSc2ncn[nH]2)cc1`, the activation is reported as inconclusive: 38.7%. With `CC(=O)CC1(OC(C)=O)C(=O)N(C)c2ccccc21` (stereo not given) the activation was inactive: 3.23%. For `CCOc1ccc(-c2nnc3ccc(SCC(=O)Nc4nc5ccc(C)cc5s4)nn23)cc1`, the activation was inactive: 1.89%. In the case of `Cc1ccc(-n2c(Cc3cccc4ccccc34)n[nH]c2=S)c(C)c1`, the activation is reported as inactive: 2.71%. For `NS(=O)(=O)c1cccc(NC(=O)/C=C/c2cccs2)c1`, the activation was active: 93.9%. For `O=C(Nc1ncc2c(n1)-c1ccccc1CC2)c1ccc(F)cc1`, the activation was inconclusive: 51.9%. In the case of `O=C(CN1CCN(S(=O)(=O)c2ccc(Cl)cc2)CC1)Nc1ccc2c(c1)CCC2`, the activation is reported as inactive: -2.16%.
